Data reported in patent publication US11840497B2, “4-(p-quinonyl)-2-hydroxybutanamide derivatives for treatment of mitochondrial diseases” (PTC Therapeutics, Inc., priority 2007, dated 2023).
Some results were stated once for a whole list of compounds, not compound by compound. At least one compound was matched to its structure with a doubt left.

How the values were obtained:
Assay type in all cases: cell-based
[1] = tested on: Human dermal fibroblasts from Friedreich's Ataxia patients; assay: Rescue of BSO-stressed FRDA fibroblasts (Example A); conditions: FRDA fibroblasts GM04078, 1 mM BSO; read-out: protection against FRDA, EC50
Method: Test samples, 4 reference compounds (idebenone, decylubiquinone, Trolox and α-tocopherol acetate), and solvent controls were tested for their ability to rescue FRDA fibroblasts stressed by addition of L-buthionine (S,R)-sulfoximine (BSO), as described in Jauslin et al., Hum. Mol. Genet. […] Mol. Genet. […] This specific BSO-mediated cell death can be prevented by administration of antioxidants or molecules involved in the antioxidant pathway, such as α-tocopherol, selenium, or small molecule glutathione peroxidase mimetics. However, antioxidants differ in their potency, i.e. the concentration at which they are able to rescue BSO-stressed FRDA fibroblasts.
Fetal Calf Serum was obtained from PAA Laboratories. Basic fibroblast growth factor and epidermal growth factor were purchased from PeproTech. […]
The plates were incubated for 50-70 minutes at room temperature. After that time the PBS was discarded, the plate gently tapped on a paper towel and fluorescence (excitation/emission wavelengths of 485 nm and 525 nm, respectively) was read on a Gemini fluorescence reader. […]
The viability of non-BSO treated fibroblasts was set as 100%, and the viability of the BSO- and compound-treated cells was calculated as relative to this value.

[2] = tested on: human dermal fibroblasts from Huntington's patients; assay: Rescue of BSO-stressed fibroblasts from Huntington's patients (Example B); conditions: Huntington's fibroblasts GM 04281, screen as Example A; read-out: protection against Hungtington's, EC50
Method: The compounds were tested for their ability to rescue human dermal fibroblasts from Huntington's patients from oxidative stress.

[3] = tested on: human dermal fibroblasts from LHON patients; assay: Rescue of BSO-stressed fibroblasts from LHON patients (Example C); conditions: LHON fibroblasts GM03858, screen as Example A; read-out: protection against LHON, EC50
Method: The compounds were tested for their ability to rescue human dermal fibroblasts from LHON patients from oxidative stress.

SMILES | EC50 [1] | EC50 [2] | EC50 [3]
CC1=C(C)C(=O)C(CCC(C)(O)C(=O)N2CCN(C(=O)C(C)(O)CCC3=C(C)C(=O)C(C)=C(C)C3=O)CC2)=C(C)C1=O (stereo not shown) [Example 41, 6,6′-(4,4′-(piperazine-1,4-diyl)bis(3-hydroxy-3-methyl-4-oxobutane-4,1-diyl))bis(2,3,5-trimethylcyclohexa-2,5-diene-1,4-dione)] | < 0.1 µM | < 0.1 µM | < 0.1 µM
CC1=C(C)C(=O)C(CCC(C)(O)C(=O)N2CCC(O)CC2)=C(C)C1=O (stereo not shown) [Example 12] | < 0.1 µM | – | –
